Common to all, as to assay: log2 fold change, soluble protein after heating vs DMSO (PISA); higher = thermal stabilisation; K562 lysate, 10 uM; active = over 0.2 and 3.5 SD of the protein, either way, in both replicates (recomputed)
Compound in assay [1]: NCC(=O)Nc1ccc(-n2nc(C(F)(F)F)cc2-c2ccc3c(ccc4ccccc43)c2)cc1
The procedure, abridged: (§1)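 To prepare the extract, K562 pellets were dounce-homogenised in PBS pH 7.4 with 1 mM MgCl2, giving crude material at 1 mg/mL protein. This was treated with 10 μM compound for 30 min, then heated in aliquots for 3 min over 48°C-58°C before pooling and addition of NP-40 to 0.5% at 4°C. Centrifugation at 21,000xg for 90 min left soluble protein in the supernatant, which TMTpro 16plex LC-MS/MS quantified with equalised channel sums. Results are log-two fold changes in thermal stability compared with solvent controls, from duplicates.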

Chains of the proteins cited; added tags and fusions are not shown. Lines headed by an entry give the natural chain unless they say otherwise; changes in a name come on top.
UniProt Q658P3: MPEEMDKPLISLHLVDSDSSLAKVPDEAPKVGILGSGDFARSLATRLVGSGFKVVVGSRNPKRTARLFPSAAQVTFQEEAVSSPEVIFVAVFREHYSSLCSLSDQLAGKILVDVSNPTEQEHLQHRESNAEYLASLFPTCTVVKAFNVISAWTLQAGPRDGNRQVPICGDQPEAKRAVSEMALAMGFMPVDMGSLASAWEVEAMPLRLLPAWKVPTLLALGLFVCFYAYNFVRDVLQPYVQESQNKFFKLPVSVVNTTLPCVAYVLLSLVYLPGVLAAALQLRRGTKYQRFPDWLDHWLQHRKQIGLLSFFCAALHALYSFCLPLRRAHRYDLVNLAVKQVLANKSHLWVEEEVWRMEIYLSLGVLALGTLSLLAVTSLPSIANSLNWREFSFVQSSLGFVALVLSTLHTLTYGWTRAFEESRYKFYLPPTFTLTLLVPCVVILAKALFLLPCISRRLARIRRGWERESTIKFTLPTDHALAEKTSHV
UniProt Q68D10: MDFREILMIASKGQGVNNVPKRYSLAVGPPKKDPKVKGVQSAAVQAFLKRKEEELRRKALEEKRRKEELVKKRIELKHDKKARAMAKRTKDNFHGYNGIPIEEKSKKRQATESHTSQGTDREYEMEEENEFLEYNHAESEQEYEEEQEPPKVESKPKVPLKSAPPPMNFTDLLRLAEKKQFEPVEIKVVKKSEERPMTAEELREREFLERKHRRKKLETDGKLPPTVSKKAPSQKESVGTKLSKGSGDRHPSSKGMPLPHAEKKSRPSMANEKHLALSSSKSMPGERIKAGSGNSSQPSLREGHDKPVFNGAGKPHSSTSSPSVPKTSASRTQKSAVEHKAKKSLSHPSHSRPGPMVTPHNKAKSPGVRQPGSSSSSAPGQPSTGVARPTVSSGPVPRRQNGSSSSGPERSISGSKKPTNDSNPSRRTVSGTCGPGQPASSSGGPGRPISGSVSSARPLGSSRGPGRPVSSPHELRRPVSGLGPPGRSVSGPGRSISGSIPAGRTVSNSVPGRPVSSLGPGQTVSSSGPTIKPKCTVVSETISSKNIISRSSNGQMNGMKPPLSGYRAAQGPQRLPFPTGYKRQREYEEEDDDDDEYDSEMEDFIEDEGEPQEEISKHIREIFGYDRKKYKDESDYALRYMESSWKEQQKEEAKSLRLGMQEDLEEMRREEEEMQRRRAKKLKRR
UniProt P42224: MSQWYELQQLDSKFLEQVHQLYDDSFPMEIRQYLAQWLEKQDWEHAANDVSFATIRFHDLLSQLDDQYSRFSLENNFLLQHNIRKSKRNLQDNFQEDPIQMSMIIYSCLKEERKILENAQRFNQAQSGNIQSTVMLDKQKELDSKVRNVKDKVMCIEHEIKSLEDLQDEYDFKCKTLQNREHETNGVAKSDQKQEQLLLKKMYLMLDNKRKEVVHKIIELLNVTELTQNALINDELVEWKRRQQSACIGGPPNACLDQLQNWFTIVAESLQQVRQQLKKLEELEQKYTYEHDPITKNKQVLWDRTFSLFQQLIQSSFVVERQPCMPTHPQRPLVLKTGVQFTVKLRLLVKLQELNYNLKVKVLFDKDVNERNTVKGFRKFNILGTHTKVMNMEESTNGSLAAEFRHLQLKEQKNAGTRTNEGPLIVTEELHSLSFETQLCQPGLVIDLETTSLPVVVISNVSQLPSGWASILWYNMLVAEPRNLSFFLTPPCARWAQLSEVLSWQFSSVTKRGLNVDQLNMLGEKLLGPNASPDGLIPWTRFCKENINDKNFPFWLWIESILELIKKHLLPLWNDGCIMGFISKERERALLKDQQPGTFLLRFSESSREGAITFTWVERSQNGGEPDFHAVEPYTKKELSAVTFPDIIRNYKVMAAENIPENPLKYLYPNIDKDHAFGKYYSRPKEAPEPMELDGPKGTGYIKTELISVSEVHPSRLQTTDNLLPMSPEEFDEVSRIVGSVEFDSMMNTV
UniProt Q96DR4, whole entry, looked up: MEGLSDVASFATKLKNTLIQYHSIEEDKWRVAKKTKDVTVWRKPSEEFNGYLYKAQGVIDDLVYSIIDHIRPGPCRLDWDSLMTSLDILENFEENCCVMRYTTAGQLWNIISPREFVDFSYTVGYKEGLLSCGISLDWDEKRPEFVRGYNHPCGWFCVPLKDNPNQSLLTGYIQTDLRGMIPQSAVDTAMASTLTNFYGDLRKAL
UniProt Q9BWG4: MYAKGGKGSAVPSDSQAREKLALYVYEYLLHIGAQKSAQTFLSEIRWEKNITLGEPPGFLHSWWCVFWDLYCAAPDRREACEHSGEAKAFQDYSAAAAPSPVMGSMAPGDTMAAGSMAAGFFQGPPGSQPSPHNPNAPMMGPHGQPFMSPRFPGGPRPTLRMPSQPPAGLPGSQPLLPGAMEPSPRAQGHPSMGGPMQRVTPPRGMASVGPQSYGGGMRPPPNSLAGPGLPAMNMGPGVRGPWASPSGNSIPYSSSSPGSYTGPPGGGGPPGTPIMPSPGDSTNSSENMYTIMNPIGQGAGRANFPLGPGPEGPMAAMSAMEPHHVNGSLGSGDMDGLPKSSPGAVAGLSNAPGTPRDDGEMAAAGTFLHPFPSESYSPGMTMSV
UniProt O43278: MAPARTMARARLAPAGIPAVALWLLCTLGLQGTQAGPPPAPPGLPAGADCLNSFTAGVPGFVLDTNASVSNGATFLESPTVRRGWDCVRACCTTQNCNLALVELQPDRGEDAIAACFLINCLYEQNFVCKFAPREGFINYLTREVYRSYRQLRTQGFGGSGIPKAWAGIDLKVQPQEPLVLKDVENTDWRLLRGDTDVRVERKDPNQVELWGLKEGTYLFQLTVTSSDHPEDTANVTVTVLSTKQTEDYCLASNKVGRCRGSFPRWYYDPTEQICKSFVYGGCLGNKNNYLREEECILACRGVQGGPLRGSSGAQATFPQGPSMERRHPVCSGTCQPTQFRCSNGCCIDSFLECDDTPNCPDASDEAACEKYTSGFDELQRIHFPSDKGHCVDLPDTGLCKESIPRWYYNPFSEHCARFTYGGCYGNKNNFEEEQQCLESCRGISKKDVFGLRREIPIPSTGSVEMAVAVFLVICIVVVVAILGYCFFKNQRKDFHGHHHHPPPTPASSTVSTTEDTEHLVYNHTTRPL
UniProt Q01082, whole entry, looked up: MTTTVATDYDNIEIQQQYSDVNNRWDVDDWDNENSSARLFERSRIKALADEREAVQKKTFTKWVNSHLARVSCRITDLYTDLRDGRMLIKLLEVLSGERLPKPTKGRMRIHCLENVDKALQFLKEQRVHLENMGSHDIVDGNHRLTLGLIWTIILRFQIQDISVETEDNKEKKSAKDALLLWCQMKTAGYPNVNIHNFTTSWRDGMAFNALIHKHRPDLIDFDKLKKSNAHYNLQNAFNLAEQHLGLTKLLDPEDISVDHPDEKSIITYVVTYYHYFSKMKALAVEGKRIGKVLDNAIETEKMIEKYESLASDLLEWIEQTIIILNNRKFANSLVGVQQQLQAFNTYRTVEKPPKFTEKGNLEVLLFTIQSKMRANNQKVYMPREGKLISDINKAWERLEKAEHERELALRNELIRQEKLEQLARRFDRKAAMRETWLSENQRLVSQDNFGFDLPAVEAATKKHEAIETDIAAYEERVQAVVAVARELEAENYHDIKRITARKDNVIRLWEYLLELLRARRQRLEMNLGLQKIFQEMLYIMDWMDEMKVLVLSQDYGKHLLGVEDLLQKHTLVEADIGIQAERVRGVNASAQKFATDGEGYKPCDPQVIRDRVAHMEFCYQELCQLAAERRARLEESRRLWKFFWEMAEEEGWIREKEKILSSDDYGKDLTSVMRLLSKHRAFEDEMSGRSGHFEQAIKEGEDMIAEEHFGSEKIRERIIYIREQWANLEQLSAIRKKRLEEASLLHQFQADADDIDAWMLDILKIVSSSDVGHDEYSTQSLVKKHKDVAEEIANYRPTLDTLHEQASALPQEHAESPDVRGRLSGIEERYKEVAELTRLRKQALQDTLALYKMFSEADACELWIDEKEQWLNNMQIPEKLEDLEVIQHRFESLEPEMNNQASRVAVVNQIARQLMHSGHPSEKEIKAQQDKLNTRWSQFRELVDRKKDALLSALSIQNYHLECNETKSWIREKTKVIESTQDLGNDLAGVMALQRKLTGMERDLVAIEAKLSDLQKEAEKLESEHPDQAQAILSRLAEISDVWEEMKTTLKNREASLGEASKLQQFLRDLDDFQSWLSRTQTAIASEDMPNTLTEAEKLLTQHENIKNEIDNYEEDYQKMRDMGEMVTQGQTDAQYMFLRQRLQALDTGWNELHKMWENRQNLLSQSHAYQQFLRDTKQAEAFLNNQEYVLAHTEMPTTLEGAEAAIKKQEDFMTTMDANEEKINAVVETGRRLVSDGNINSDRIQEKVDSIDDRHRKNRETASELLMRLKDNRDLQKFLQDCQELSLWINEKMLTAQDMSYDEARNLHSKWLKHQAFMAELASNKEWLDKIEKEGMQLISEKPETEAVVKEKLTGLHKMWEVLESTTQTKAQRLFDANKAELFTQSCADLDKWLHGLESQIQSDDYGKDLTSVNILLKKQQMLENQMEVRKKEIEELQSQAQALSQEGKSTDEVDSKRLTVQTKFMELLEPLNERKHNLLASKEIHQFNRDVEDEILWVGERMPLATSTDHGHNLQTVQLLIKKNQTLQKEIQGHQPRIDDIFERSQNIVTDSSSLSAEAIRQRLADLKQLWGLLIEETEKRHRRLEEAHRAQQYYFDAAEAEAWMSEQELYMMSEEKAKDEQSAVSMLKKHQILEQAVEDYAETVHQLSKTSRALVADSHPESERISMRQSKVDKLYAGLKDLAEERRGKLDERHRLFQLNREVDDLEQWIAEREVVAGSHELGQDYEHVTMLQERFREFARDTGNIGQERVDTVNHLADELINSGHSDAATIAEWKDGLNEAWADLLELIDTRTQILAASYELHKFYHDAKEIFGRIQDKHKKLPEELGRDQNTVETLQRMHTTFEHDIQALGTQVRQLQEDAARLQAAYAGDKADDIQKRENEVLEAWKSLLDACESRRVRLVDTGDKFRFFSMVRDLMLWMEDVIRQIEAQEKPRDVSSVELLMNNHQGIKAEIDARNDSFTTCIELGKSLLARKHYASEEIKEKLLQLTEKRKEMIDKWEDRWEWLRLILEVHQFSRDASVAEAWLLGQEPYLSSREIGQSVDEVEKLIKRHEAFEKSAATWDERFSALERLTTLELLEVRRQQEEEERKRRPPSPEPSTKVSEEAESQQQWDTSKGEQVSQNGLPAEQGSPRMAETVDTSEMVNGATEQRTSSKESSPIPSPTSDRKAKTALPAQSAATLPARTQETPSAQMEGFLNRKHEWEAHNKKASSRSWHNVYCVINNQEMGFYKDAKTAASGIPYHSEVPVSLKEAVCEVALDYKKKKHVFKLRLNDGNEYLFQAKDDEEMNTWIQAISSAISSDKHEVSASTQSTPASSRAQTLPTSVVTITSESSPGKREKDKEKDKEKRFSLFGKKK

Compound in assay [2]: O=C1NC(=O)C(c2cnc3ccccn23)=C1c1cn2c3c(cc(F)cc13)CN(C(=O)N1CCCCC1)CC2
The procedure, abridged:
as §1

Compound in the next assay: c1cn2cc(-c3ccc4cn[nH]c4c3)nc(Nc3ccc(N4CCOCC4)cc3)c2n1 [entospletinib]
The procedure, abridged: as §1

Compound in a further assay: O=C(CCCCCCC(=O)Nc1ccccc1)NO [vorinostat]
Put shortly:
as §1

Compound in a further assay: O=C(O)c1ccc2c(c1)nc(Nc1cccc(Cl)c1)c1ccncc12 [silmitasertib]
The procedure, abridged:
as §1

The values that follow come from the supplement of paper PMC10849652.

The list shows a part of the results.

Regarding STEAP3 isoform 2 (UniProt Q658P3), the values for the log2 fold change (in assay [1]; in assay [2]; in the assay with entospletinib) were inactive: -0.02, inactive: 0.045 and inactive: -0.005, respectively.

For the target SPTY2D1 (UniProt Q68D10), the log2 fold change in the assay with vorinostat is inactive: -0.007; in the assay with silmitasertib, inactive: -0.007; in assay [2], inactive: 0.007.

With SRGAP2, A0A075B7B5, in assay [2], the log2 fold change was inactive: 0.03.

STAT1 isoform 2 (UniProt P42224): the log2 fold change in assay [2] was inactive: -0.065.

For SRC isoform 2 (UniProt P12931), the figures for the log2 fold change with vorinostat, with silmitasertib and with entospletinib were inactive: 0.073, inactive: -0.069 and inactive: -0.111, respectively.

With STARD4 (UniProt Q96DR4), the log2 fold change in the assay with entospletinib was inactive: -0.166.

For SSBP4 (UniProt Q9BWG4), the log2 fold change is inactive: -0.045 in assay [1], inactive: 0.024 in assay [2] and inactive: -0.057 in the assay with entospletinib.

Regarding SPINT1 (UniProt O43278), the values for the log2 fold change (in the assay with vorinostat; with silmitasertib; in assay [2]) were inactive: 0.121, inactive: -0.063 and inactive: 0.059, respectively.

In the case of SPTBN1 isoform 3 (UniProt Q01082), the log2 fold change is inactive: -0.012 in the assay with vorinostat, inactive: 0.204 in the assay with silmitasertib, inactive: -0.048 in assay [2] and inactive: -0.129 with entospletinib.
